Earlier results, collected in US20080120039A1, “HORMONE AND DRUG CONCENTRATIONS IN THE PORTAL VEIN AND HEPATIC SINUSOIDS” (Entelos, Inc., priority 2005, published 2008).
At least one structure is not confirmed: it was looked up by name or label, or the drawing left a doubt.

Assays:
[1] = system: endogenous insulin release; conditions: somatostatin infusions, typical; cited from earlier work
[2] = system: glucagon release; conditions: somatostatin infusions, typical; cited from earlier work

Q: Which results are given for `C[C@H](N)C(=O)NCC(=O)N[C@H]1CSSC[C@@H](C(=O)O)NC(=O)[C@H](CO)NC(=O)[C@H]([C@@H](C)O)NC(=O)[C@H](Cc2ccccc2)NC(=O)[C@H]([C@@H](C)O)NC(=O)[C@H](CCCCN)NC(=O)[C@H](Cc2c[nH]c3ccccc23)NC(=O)[C@H](Cc2ccccc2)NC(=O)[C@H](Cc2ccccc2)NC(=O)[C@H](CC(N)=O)NC(=O)[C@H](CCCCN)NC1=O` [Somatostatin, somatostatin]?
A: inhibition of endogenous insulin release [1]: nearly completely; inhibition of glucagon release [2]: about 70%
